The values that follow come from PMC9730843.

Substitutions are numbered along the chain they refer to. Names may count otherwise. These are yes or no findings as the source states them, for the method shown. For some assays here: Tags and fused reporters may be left off the sequences shown.

Test [1] has as its target PnG, type II thioesterase (TEII) of the phoslactomycin polyketide synthase (Pn PKS). As to the kind of experiment: SEC; HiLoad 16/600 Superdex 200 pg column, 300 mM NaCl, 25 mM NaH2PO4, pH 7.5; elution after Ni-NTA purification; both purified.
Test [2] deals with PnG S93G, active-site (catalytic) knockout. The test is described as above.

B1: PnG, type II thioesterase (TEII) of the phoslactomycin polyketide synthase (Pn PKS) (enzyme)
chain: MVTESDRWIRSYLPGPAEALPVVHFPHAGGSASYYRPFCAALSDRFNALALQYPGRQDRRDEPCVTDLHVLADLLFDRLRQCADRPMAFFGHSMGALLAFEVTRRFERELNTSPVALFLSGRRAPSRHRDENVDLSSNESLLAEIRELSGTDPRLLGDDEMLEMIMEPLRADYQALGAYHFAPEPPVRCPVTVLTGADDPRTSQDEAAAWQEHTTGAFDLRVFPGGHFFISENVADVTGFVAERLSAVPLAG
For the molecule B1, in test [1], the binding entry is “no binding”.

B2: PnG S93G, active-site (catalytic) knockout (enzyme)
chain: B1 chain with S93G
Consider B2, for which the binding result in test [2] is “no binding”.
